Experimental data published in patent US7141393 (KABUSHIKI KAISHA HAYASHIBARA SEIBUTSU KAGAKU KENKYUJO, dated 2006).
These are yes or no findings as the source states them, for the method shown. Some binding calls cover weakened binding; strength is not graded here.

Legend:
[1] = target: T1, IL-18R protein (aqueous solution obtained from L428 cells by the method in Example 1) (human) (UniProt Q13478); assay: Western blot, non-reducing SDS-PAGE (FIG. 2 legend)
T1 sequence (looked up): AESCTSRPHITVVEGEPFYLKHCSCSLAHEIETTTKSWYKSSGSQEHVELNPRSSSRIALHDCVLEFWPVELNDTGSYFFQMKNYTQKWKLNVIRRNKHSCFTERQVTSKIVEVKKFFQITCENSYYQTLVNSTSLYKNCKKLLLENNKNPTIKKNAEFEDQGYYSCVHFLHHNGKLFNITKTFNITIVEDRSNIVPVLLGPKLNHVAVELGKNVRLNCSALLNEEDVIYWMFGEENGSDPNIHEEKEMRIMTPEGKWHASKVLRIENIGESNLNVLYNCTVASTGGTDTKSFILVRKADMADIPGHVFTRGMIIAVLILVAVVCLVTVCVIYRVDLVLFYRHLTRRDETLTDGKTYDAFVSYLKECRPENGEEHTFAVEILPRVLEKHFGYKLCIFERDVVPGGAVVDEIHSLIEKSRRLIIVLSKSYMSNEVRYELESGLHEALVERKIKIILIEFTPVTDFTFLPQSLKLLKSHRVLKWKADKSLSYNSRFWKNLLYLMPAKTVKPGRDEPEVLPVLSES

[2] = target: T1, IL-18R protein (aqueous solution obtained from L428 cells by the method in Example 1) (human); assay: Western blot, non-reducing SDS-PAGE, antibody at 10 ug/ml
[3] = target: T1, IL-18R protein (aqueous solution obtained from L428 cells by the method in Example 1) (human); assay: inhibition of 125I-labelled IL-18 binding to IL-18R protein in solution (FIG. 1 legend)
[4] = target: T1, IL-18R protein (aqueous solution obtained from L428 cells by the method in Example 1) (human); assay: immunoaffinity chromatography, antibody immobilised on Sepharose 4B, elution at pH 10.8
[5] = target: T1, IL-18R protein (aqueous solution obtained from L428 cells by the method in Example 1) (human); assay: inhibition of 125I-labelled IL-18 binding to IL-18R protein in solution, PEG precipitation

- binding [1]: binds
- binding [2]: binds
- binding [3]: binds
- binding [4]: binds
- binding [5]: binds
B1: monoclonal antibody MAb #117-10C (antibody, V domains shown)
VH: EVQLQQSGAELVKPGASVKLSCTTSGFNIKDIYIYWVKQRPEQGLEWVGRIDPANGDTKYGPNFQDKATITADTSSNTAYLQLRSLTSEDTAVYYCARRGNYGAGFGYWGQGTLVTVSA
VL: DIQMTQSPASLSASVGETVTITCRASGNIHNYLAWYQQRQGKSPQILVYNAKTLADGVSSRFSGSGSGTQYSLNINSLQPEDFGTYFCQHFWSTPYTFGGGTKLEIKR
notes: Mouse hybridoma antibody purified from ascites
